Source: PubChem BioAssay AID1259425 (University of Nebraska Medical Center, 2018)

Aim: 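Find knockdowns that reproduce the gene expression pattern seen when KSR1 is lost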 (primary screen)
System: HCT116 human colon cancer cells
Reagent: siRNA pool against human genes, 50 nM siRNA
Measured: 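mRNA of six signature genes measured together by branched-DNA assay after 50 nM siRNA pool, blank removed, divided by geometric mean of two housekeeping genes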
Reading the numbers: BNIP3L mRNA: higher = more BNIP3L transcript after knockdown
This is one part, drawn at random, of about 14,000 reagents. Not all columns of the deposit are shown. Not stated in the record: the time to read-out.

{"Gene": "TRIP12 (thyroid hormone receptor interactor 12)", "BNIP3L mRNA, set 1": 0.103}
{"Gene": "FKBP15 (FKBP prolyl isomerase family member 15)", "BNIP3L mRNA, set 1": 0.065}
{"Gene": "CLDN4 (claudin 4)", "BNIP3L mRNA, set 1": 0.0669}
{"Gene": "MOCOS (molybdenum cofactor sulfurase)", "BNIP3L mRNA, set 1": 0.0574}
{"Gene": "ELN (elastin)", "BNIP3L mRNA, set 1": 0.184}
{"Gene": "DNASE2 (deoxyribonuclease 2, lysosomal)", "BNIP3L mRNA, set 1": 0.211}
{"Gene": "GREB1 (growth regulating estrogen receptor binding 1)", "BNIP3L mRNA, set 1": 0.0914}
{"Gene": "NEUROG2 (neurogenin 2)", "BNIP3L mRNA, set 1": 0.147}
{"Gene": "CCSER2 (coiled-coil serine rich protein 2)", "BNIP3L mRNA, set 1": 0.12}
{"Gene": "S100A13 (S100 calcium binding protein A13)", "BNIP3L mRNA, set 1": 0.0626}
{"Gene": "UBD (ubiquitin like modifier D)", "BNIP3L mRNA, set 1": 0.0302}
{"Gene": "RAB8A (RAB8A, member RAS oncogene family)", "BNIP3L mRNA, set 1": 0.0299}
{"Gene": "CORO2B (coronin 2B)", "BNIP3L mRNA, set 1": 0.0821}
{"Gene": "CEP135 (centrosomal protein 135)", "BNIP3L mRNA, set 1": 0.108}
{"Gene": "PHF23 (PHD finger protein 23)", "BNIP3L mRNA, set 1": 0.0989}
{"Gene": "CELSR2 (cadherin EGF LAG seven-pass G-type receptor 2)", "BNIP3L mRNA, set 1": 0.13}
{"Gene": "CXCR6 (C-X-C motif chemokine receptor 6)", "BNIP3L mRNA, set 1": 0.0708}
{"Gene": "SLC6A12", "BNIP3L mRNA, set 1": 0.165}
{"Gene": "KIAA1586", "BNIP3L mRNA, set 1": 0.112}

Ordered by “BNIP3L mRNA, set 1” (low to high): 2 of the entries above.
{"Gene": "PHF23 (PHD finger protein 23)", "BNIP3L mRNA, set 1": 0.0989}
{"Gene": "CELSR2 (cadherin EGF LAG seven-pass G-type receptor 2)", "BNIP3L mRNA, set 1": 0.13}
